Measurements published in US20020123042A1.
These are yes or no findings as the source states them, for the method shown. Binding seen in cells or lysates may run through a third protein. Some results given as binding are weak or reduced against the parent protein; the word gives no strength.

Amino acid sequences for entries named in this document (tags omitted). A change or cut given only in a name is not applied to a line headed by its entry.
UniProt O43683: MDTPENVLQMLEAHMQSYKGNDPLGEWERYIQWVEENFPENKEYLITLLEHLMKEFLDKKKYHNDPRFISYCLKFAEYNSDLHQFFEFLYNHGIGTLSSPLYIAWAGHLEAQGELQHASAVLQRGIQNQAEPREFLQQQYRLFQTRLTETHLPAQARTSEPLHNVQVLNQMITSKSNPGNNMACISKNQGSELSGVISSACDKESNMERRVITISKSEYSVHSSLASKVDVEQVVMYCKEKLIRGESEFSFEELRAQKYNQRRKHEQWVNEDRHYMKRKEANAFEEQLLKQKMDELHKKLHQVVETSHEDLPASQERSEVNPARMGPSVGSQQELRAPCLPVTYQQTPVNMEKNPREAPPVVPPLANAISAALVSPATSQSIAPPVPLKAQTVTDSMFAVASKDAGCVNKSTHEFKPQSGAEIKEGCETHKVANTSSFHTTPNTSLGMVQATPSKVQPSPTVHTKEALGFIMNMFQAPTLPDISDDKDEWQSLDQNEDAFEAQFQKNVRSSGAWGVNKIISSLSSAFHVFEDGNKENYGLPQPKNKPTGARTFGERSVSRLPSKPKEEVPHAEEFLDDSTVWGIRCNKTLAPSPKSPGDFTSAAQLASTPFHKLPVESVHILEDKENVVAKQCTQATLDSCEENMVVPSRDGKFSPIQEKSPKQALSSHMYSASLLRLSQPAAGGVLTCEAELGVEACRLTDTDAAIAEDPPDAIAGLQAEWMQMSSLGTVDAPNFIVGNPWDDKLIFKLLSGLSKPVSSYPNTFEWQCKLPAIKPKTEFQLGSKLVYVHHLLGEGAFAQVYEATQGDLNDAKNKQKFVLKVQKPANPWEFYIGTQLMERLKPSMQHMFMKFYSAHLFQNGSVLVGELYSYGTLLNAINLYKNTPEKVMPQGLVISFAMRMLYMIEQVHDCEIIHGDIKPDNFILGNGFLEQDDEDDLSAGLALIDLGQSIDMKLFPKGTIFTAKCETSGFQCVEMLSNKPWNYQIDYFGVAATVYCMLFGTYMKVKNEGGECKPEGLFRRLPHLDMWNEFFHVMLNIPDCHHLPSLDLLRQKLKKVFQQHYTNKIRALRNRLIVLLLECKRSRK
UniProt O43684: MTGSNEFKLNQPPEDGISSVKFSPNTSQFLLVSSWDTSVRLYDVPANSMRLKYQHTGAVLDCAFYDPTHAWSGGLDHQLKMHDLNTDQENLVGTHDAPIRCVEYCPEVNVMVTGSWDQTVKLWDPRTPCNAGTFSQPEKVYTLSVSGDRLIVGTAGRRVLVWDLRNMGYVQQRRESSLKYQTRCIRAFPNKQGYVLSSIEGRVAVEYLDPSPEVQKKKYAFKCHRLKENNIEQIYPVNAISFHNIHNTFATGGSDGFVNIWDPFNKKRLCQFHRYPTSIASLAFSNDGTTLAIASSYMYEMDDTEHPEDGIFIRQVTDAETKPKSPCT

Key:
[1] = target: wild-type huBUB1 (full-length, plasmid p385-1) (human) (UniProt O43683); assay: co-immunoprecipitation of in vitro translated proteins
[2] = target: full-length HA-epitope tagged huBUB1 (plasmid p396-1) (human) (UniProt O43683); assay: anti-HA co-immunoprecipitation with full-length HA-BUB1

Q: What does the source list for “wild type huBUB3 (plasmid p291-2) (from UniProt O43684 1-328)”?
A: binding [1]: binds; binding [2]: binds
